Results are given in words; binding and its absence hold for the method and conditions named. Some binding calls cover weakened binding; strength is not graded here. Tags and fused reporters may be left off the sequences shown.

In this assay the target is T1, Mouse IL-18BP (isoform D) (mouse, UniProt Q9Z0M9 29-193, biotinylated (site not stated)).
T1 sequence: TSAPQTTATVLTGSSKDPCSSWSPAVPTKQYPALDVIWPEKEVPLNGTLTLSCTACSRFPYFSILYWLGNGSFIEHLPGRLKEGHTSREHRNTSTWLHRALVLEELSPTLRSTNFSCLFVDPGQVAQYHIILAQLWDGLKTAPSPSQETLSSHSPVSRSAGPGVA
Briefly: SPR by reference to Table 8.

B1: Mouse IL-18 T44C/L189C Fc (Fc fusion)
chain: NFGRLHSTCAVIRNINDQVLFVDKRQPVFEDMTDIDQSASEPQTRLIIYMYKDSEVRGLAVTLSVKDSKMSTLSSKNKIISFEEMDPPENIDDIQSDLIFFQKRVPGHNKMEFESSLYEGHFLASQKEDDAFKLILKKKDENGDKSVMFTLTNCHQSGGGGAGGGGEPRGPTIKPCPPCKCPAPNAAGGPSVFIFPPKIKDVLMISLSPIVTCVVVDVSEDDPDVQISWFVNNVEVHTAQTQTHREDYNSTLRVVSALPIQHQDWMSGKEFKCKVNNKDLGAPIERTISKPKGSVRAPQVYVLPPPEEEMTKKQVTLTCMVTDFMPEDIYVEWTNNGKTELNYKNTEPVLDSDGSYFMYSKLRVEKKNWVERNSYSCSVVHEGLHNHHTTKSFSRTPGK
For the molecule B1, the binding entry is listed as “binds”.

For the origin of these results see patent publication US20240409599A1 (Genentech, published 2024).
